Experimental findings from article PMC7319344 are described below.

The assay addresses T1, Grx3-HBH (C. albicans monothiol glutaredoxin Grx3 with His-Biotin-His tag) (C. albicans) (UniProt Q5AF81).
T1 sequence: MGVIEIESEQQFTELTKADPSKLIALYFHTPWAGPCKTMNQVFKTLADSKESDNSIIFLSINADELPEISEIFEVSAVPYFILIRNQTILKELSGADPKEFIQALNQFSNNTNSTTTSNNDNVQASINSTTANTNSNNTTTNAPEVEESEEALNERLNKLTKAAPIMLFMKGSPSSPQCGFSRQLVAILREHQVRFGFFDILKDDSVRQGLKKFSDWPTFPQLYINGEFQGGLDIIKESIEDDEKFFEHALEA
Nature of the assay: affinity purification with mass spectrometry; in vivo cross-linking with 1% formaldehyde for 10 min, His-Biotin-His (HBH) tandem affinity purification of Grx3-HBH under denaturing conditions (lysis in 8M urea buffer), label-free quantitative LC-MS/MS; cells grown in YPM with or without 500 uM BPS for 6hr or 16hr; proteins in untagged control, Wor1/Tup1 HBH purifications and the CRAPome excluded.

No constants are given. Whether binding was seen depends on the method and setting. In cells and extracts the contact can be indirect. Here binding means that the protein was enriched with, or labelled near, the bait; the list need not be complete. Sequences can lack the tags named with a protein.

B1: Rad6 (protein, UniProt O74201 1-179)
chain: MSTPARRRLMRDFKRMQQDPPSGVSASPLPDNVMKWNAVIIGPSDTPFEDGTFRLLLSFDEQYPNKPPQVKFISEMFHPNVYASGELCLDILQNRWSPTYDVSSILTSVQSLLNDPNISSPANVEAANLYKDHRSLYVKRVRETVENSWNDDDDEEEEEEDEDEAEDEDDDDDDNIDED
Regarding B1, the binding result was “binds”.

B2: Sfu1 (protein, UniProt Q5AP95 1-517)
chain: MPTSPTESIPNSSTKEQPILPKMLPTAKSPHTTPAQSPQNSDHHHHHQQTPPQPTDGQQCSNCGTTKTPLWRRAPDGTLICNACGLYYRSNNTHRPVNLKRPPNTIAVVKEEEGSCKGDGRCNGTGGSAACKGCPAYNNRIVAKKALEKSPKNDSSRAPIDKSLKRSTSTDATTEDESSLAIACFNCGTTITPLWRRDDAGNTICNACGLFYRLHGSHRPIKMKRPTIKRRKRNVSDKKSKDEVQMHSSDQSPIVASDPISPTPHNNENNNNVTNITTTTKTPTRSPHYYQPPPQYPYQHHPINSTTSSAINRLPPISYQSPYQTAPLSHSPMQSSSSYSPGASSVIPSSYYPPYSGSGRIPNGPGPVPGPPPPPPPTQSQPHHQQITTSPTSQSYGSLRAPIHITKRGYTPENIRLPSIQLTSSTSSNSETKLPPITNHSEKCCSNCAGPKSLAPMAIDFTASYRFNNIDSQTKLTKEDQNDSEGVSRDNDTRDENKPIKQEEHRSALSIGKLLNG
In the case of B2, the binding result is “binds”.

B3: Rad51 (protein, UniProt Q59UY8 1-361)
chain: MTQTEIEQVDLHEEGSHPQNINADAEVEAEEDEDVLNGPLLIEQLEGNGINASDIKKLKAEGFHTIESIAYTPKRHLMTVKGISENKAEKISAEAAKLVPLGFTTASEFHSRRSELICLTTGSKQLDTLLGGGVETGSITEVFGEFRTGKSQLCHTLAVTCQLPIDMGGGEGKCLYIDTEGTFRPNRLVSIAQRYGLNPNDCLDNVAYARAYNAEHQLNLLNIAAEMMAESRFSLLIVDSIMSLYRTDYAGRGELSARQTHVAKFMRTLQRLADEFGIAVVITNQVVAQVDGMSGMFNPDPKKPIGGNIIAHSSTTRLSFKKGRGETRICKIYDSPCLPESECIFAIYEDGIGDPKVEDNE
Consider B3, for which the binding result was “binds”.
